Results from the supplement of paper PMC7125110.
± gives the standard error. Many of these values have a large error.

B1: glmS ribozyme (parent)
chain: AUAAAAGCGCCAGAACUACAGAAAUGUAGUUGACGAGGAGGAGGUUUAUCGAAUUUUCGGCGGAUGCCUCCAAA

Variants of: B1
Test: self-cleavage kobs at 640 uM GlcN6P; higher = faster cleavage; RNA array
Settings: with glucosamine-6-phosphate
Outline: (§1)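 Glucosamine-6-phosphate in HEPES/KCl/Mg(OAc)2 buffer, at 40 μM to 10 mM, was flowed over barcoded ribozyme variants transcribed in situ by E. coli RNA polymerase on sequenced MiSeq chips. Tracking was through a hybridised Cy3 probe at 37 °C. kobs, kcat and KM came from exponential decay fits and weighted Michaelis–Menten fits of normalised per-tile medians.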

Variant | self-cleavage kobs at 640 uM GlcN6P
G41C U55G | 2.34e-05 ± 1.9e-05 s⁻¹
G29A G38U C71G | 3.26e-05 ± 3.1e-05 s⁻¹
C16A G40U U54C C71U | 1.56e-05 ± 1e-05 s⁻¹
G37U C68U C71G | 4.41e-05 ± 2.5e-05 s⁻¹
G29U A64C C70G | 4e-05 ± 3.3e-05 s⁻¹
U54G A64C C67G C68U U69C | 8.13e-05 ± 4.4e-05 s⁻¹
U31C A52G C67U C71A | 4.9e-05 ± 3.3e-05 s⁻¹
A14U U69A C70A | 4.6e-05 ± 2.4e-05 s⁻¹
A14U A15U C16U | 3.77e-05 ± 2.1e-05 s⁻¹
A12G U45A C70G | 3.28e-05 ± 1.8e-05 s⁻¹
A53C U56C | 2.69e-05 ± 1.9e-05 s⁻¹
U30G U49G U54A | 2.92e-05 ± 2.1e-05 s⁻¹
G37U U46G U69A C71U | 3.07e-05 ± 2.7e-05 s⁻¹
G13A G40C | 2.12e-05 ± 1.9e-05 s⁻¹
A12G C50G G62C C70G | 0.000179 ± 9.2e-05 s⁻¹
A14U U57A G66U C68A | 0.000155 ± 0.0001 s⁻¹
C11G U30C U65G U69A | 3.15e-05 ± 2e-05 s⁻¹
G40U U55C | 1.96e-05 ± 1.1e-05 s⁻¹
A36G G63U C70A | 3.44e-05 ± 2.9e-05 s⁻¹
A53U U54C C67U C70A | 3.38e-05 ± 2.9e-05 s⁻¹
G29U U57C | 1.99e-05 ± 1.4e-05 s⁻¹
C58G G60A U69A C71A | 4.5e-05 ± 2.7e-05 s⁻¹
U30G G41C | 2.36e-05 ± 1.3e-05 s⁻¹
G13A U54G C68A | 3.17e-05 ± 2.5e-05 s⁻¹
A52U U69C C70G | 5.53e-05 ± 3.2e-05 s⁻¹
A33G C50G G66A | 3.71e-05 ± 2.7e-05 s⁻¹

Variant | self-cleavage kobs at 640 uM GlcN6P
G37U G38C U47G C50A C70U | 3.9e-05 ± 2.3e-05 s⁻¹
C16A U46A | 3.83e-05 ± 2.2e-05 s⁻¹
A14G A52U A53G | 2.78e-05 ± 1.7e-05 s⁻¹
U31G G37U C68A | 3.02e-05 ± 3e-05 s⁻¹
G51A C70U | 1.56e-05 ± 1.5e-05 s⁻¹
G51A C70A | 2.94e-05 ± 1.8e-05 s⁻¹
G26U A48G | 2.84e-05 ± 2.7e-05 s⁻¹
G29U U56G A64G C70G | 3.93e-05 ± 2.4e-05 s⁻¹
U54A G59C C68A C70A | 2.51e-05 ± 2.2e-05 s⁻¹
A15U G32U A39U C67G | 2.28e-05 ± 2.2e-05 s⁻¹
C50G U54C | 3.43e-05 ± 2.6e-05 s⁻¹
G13U U65G C67G | 3.07e-05 ± 2.5e-05 s⁻¹
C50U C61U C68A | 2.66e-05 ± 1.9e-05 s⁻¹
A12G G32A C67G C68U | 7.48e-05 ± 3.9e-05 s⁻¹
A48G G66A | 2.99e-05 ± 1.8e-05 s⁻¹
G51A U54A G59A C68G | 3.85e-05 ± 2.7e-05 s⁻¹
A14U C50G G60C | 3.7e-05 ± 3e-05 s⁻¹
U31C U69G | 2.58e-05 ± 2.2e-05 s⁻¹
U31A G62A U65C U69G | 3.17e-05 ± 2.6e-05 s⁻¹
U54A A64C | 2.73e-05 ± 2.4e-05 s⁻¹
A15G G29U C50G | 3.1e-05 ± 2.4e-05 s⁻¹
A15U A33G U69A | 3.65e-05 ± 2e-05 s⁻¹
G38U C61A C67U | 0.000133 ± 8.9e-05 s⁻¹
A15U U56C U57G G63A C70G | 9.11e-05 ± 5.8e-05 s⁻¹
U31C C34G G35U C68G | 0.000664 ± 0.00033 s⁻¹
G44C A53U | 2.75e-05 ± 1.5e-05 s⁻¹

In another format: entries from further up.
Variant,self-cleavage kobs at 640 uM GlcN6P
U31C U69G,2.58e-05 ± 2.2e-05 s⁻¹
U31A G62A U65C U69G,3.17e-05 ± 2.6e-05 s⁻¹

The results go on:

Variant | self-cleavage kobs at 640 uM GlcN6P
G37C U56C C58U C67U | 2.94e-05 ± 2.6e-05 s⁻¹
A15U C50U C61A | 3.44e-05 ± 3.1e-05 s⁻¹
A39U G41U C71A | 5.18e-05 ± 2.6e-05 s⁻¹
A12G A39U U47G | 3.46e-05 ± 2e-05 s⁻¹
A15U G35U U65A C67A | 4.41e-05 ± 2.2e-05 s⁻¹
G13A U47A C71G | 4.23e-05 ± 2.2e-05 s⁻¹
U45A U46C | 0.0551 ± 0.034 s⁻¹
C34U C50G C68A | 2.21e-05 ± 1.6e-05 s⁻¹
C19A U30C | 6.65e-05 ± 3.5e-05 s⁻¹
C50G G63C C71U | 8.54e-05 ± 5.5e-05 s⁻¹
G37C U46G U69G | 0.000588 ± 0.00033 s⁻¹
A48G C50U C70U | 3.38e-05 ± 2.2e-05 s⁻¹
C58U C71U | 2.03e-05 ± 1.3e-05 s⁻¹
G13U U69A | 2.6e-05 ± 1.3e-05 s⁻¹
A33G C67G C70A | 3.54e-05 ± 2.9e-05 s⁻¹
G51U A53G U69G | 3.95e-05 ± 2.2e-05 s⁻¹
G13C G41U C70U | 5.96e-05 ± 4.2e-05 s⁻¹
A15G G38U U57A G62U U69A | 0.000989 ± 0.00053 s⁻¹
U30C U56G C68G U69A | 3.33e-05 ± 2.9e-05 s⁻¹
U30G C58G A64C C67G C71G | 9.88e-05 ± 5.8e-05 s⁻¹
A14U U57A | 2.12e-05 ± 1.6e-05 s⁻¹
A14U A48C | 2.27e-05 ± 1.5e-05 s⁻¹
A52C C67A C68G | 4.2e-05 ± 2.2e-05 s⁻¹
A33G A53U C68G | 2.74e-05 ± 2.6e-05 s⁻¹
G13A G29A C70G | 3.72e-05 ± 1.9e-05 s⁻¹

Variants of: B1
Test: self-cleavage kobs at 160 uM GlcN6P; higher = faster cleavage; RNA array
Settings: with glucosamine-6-phosphate
Outline: as §1

Variant | self-cleavage kobs at 160 uM GlcN6P
C16A G40U U54C C71U | 1.93e-05 ± 1.6e-05 s⁻¹
A36G G63U C70A | 2.13e-05 ± 2.1e-05 s⁻¹
A33G C50G G66A | 3.62e-05 ± 2.9e-05 s⁻¹
U31C U69G | 2.18e-05 ± 2e-05 s⁻¹
A15U G35U U65A C67A | 4.13e-05 ± 2.3e-05 s⁻¹
C50G G63C C71U | 3.98e-05 ± 2.5e-05 s⁻¹

Variants of: B1
Test: self-cleavage kobs at 2500 uM GlcN6P; higher = faster cleavage; RNA array
Settings: with glucosamine-6-phosphate
Outline: as §1

Variant | self-cleavage kobs at 2500 uM GlcN6P
U54G A64C C67G C68U U69C | 5.62e-05 ± 3.3e-05 s⁻¹
A12G C50G G62C C70G | 0.000266 ± 0.00017 s⁻¹
G51A C70U | 1.64e-05 ± 1.3e-05 s⁻¹
A12G G32A C67G C68U | 0.00102 ± 0.00067 s⁻¹
A48G G66A | 3.95e-05 ± 2.1e-05 s⁻¹
G51A U54A G59A C68G | 2.73e-05 ± 2e-05 s⁻¹
A15U A33G U69A | 5.08e-05 ± 2.7e-05 s⁻¹
A15U G35U U65A C67A | 2.07e-05 ± 1.7e-05 s⁻¹
G13C G41U C70U | 3.77e-05 ± 2e-05 s⁻¹
U30G C58G A64C C67G C71G | 3.24e-05 ± 2e-05 s⁻¹

Variants of: B1
Test: self-cleavage kobs at 10000 uM GlcN6P; higher = faster cleavage; RNA array
Settings: with glucosamine-6-phosphate
Outline: as §1

Variant | self-cleavage kobs at 10000 uM GlcN6P
A15G G29U C50G | 3.2e-05 ± 2e-05 s⁻¹
G13A U47A C71G | 2.7e-05 ± 1.7e-05 s⁻¹
G13C G41U C70U | 3.96e-05 ± 2e-05 s⁻¹
